For assay [1], the target named is T1, human TM4SF1 (transmembrane-4 L six family member-1) on HUVEC cells (human) (UniProt P30408).
T1 sequence: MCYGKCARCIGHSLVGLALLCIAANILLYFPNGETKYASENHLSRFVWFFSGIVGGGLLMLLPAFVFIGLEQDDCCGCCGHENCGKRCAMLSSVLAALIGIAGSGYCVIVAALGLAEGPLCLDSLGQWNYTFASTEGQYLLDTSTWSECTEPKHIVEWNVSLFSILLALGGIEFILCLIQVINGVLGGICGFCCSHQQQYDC
The experiment in a line: cell-based flow cytometry on HUVEC cells. Background: A flow cytometer gives signals particle by particle.

Assay [2] deals with T2, TM4SF1 (as named in the statement on the antibody screen) (Homo sapiens (Human)) (UniProt P30408).
T2 sequence: T1 sequence
The experiment in a line: screen referred to in the description; method not detailed.

This note sets out measurements from patent US20250152730A1, “ANTI-TM4SF1 ANTIBODY-DRUG CONJUGATES COMPRISING CLEAVABLE LINKERS AND METHODS OF USING SAME” (Angiex, Inc., priority 2022, published 2025).

Results are given in words; binding and its absence hold for the method and conditions named. Some entries that bind do so weakly or less than the wild type. Where a sequence is shown, tags or fusion partners need not be part of it.

B1: AGX-A07 anti-TM4SF1 antibody (without Fc region mutations) (antibody, V domains shown)
VH: QIQLVQSGPELKKPGETVKISCKASGYTFTNYGVKWVKQAPGKDLKWMGWINTYTGNPIYAADFKGRFAFSLETSASTAFLQINNLKNEDTATYFCVRFQYGDYRYFDVWGAGTTVTVSS
VL: QIILSQSPAILSASPGEKVTMTCRANSGISFINWYQQKPGSSPKPWIYGTANLASGVPARFGGSGSGTSYSLTISRVEAEDAATYYCQQWSSNPLTFGAGTKLELR
For the molecule B1, the binding entry in assay [1] and in assay [2] was “binds” throughout.

B2: AGX-A07 variant comprising Fc region mutations N297C, M252Y, S254T and T256E (antibody, V domains shown)
VH: B1 VH
VL: B1 VL
With B2, the binding result in assay [1] was “binds”.

B3: AGX-A07 variant comprising Fc region mutation N297C (antibody, V domains shown)
VH: B1 VH
VL: B1 VL
Consider B3, for which, in assay [1], the binding entry is given as “binds”.

B4: murine monoclonal antibody AGX-A05 (antibody, V domains shown)
VH: EVQVQQSGPELVKPGASVKMSCKASGYTFTSYVMHWVKQKPGQGLEWIGYINPNNDNINYNEKFKGKASLTSDKSSNTVYMELSSLTSEDSAVYYCAGYGNSGANWGQGTLVTVSA
VL: DIQMTQSPASLSASVGETVTITCRTSKNIFNFLAWYHQKQGRSPRLLVSHTKTLAAGVPSRFSGSGSGTQFSLKINSLQPEDFGIYYCQHHYGTPWTFGGGTKLEIK
Turning to B4, the binding result in assay [2] is reported as “binds”.

B5: murine monoclonal antibody AGX-A08 (antibody, V domains shown)
VH: EVQLQQSGPELVKPGASVKLSCKASGYTVTSYVMHWVKQKPGQGLEWIGYINPYSDVTNCNEKFKGKATLTSDKTSSTAYMELSSLTSEDSAVYYCSSYGGGFAYWGQGTLVTVSA
VL: DIQMTQSPASLSASVGEPVTITCRASKNIYTYLAWYHQKQGKSPQFLVYNARTLAGGVPSRLSGSGSVTQFSLNINTLHREDLGTYFCQHHYDTPYTFGGGTNLEIK
Turning to B5, in assay [2], the binding entry is “binds”.

B6: murine monoclonal antibody AGX-A03 (antibody, V domains shown)
VH: QIQLVQSGPELKKPGETVKISCKASGYSFRDYGMNWVKQAPGRTFKWMGWINTYTGAPVYAADFKGRFAFSLDTSASAAFLQINNLKNEDTATYFCARWVSYGNNRNWFFDFWGAGTTVTVSS
VL: DVLMTQTPLSLPVRLGDQASISCRSSQTLVHSNGNTYLEWYLQKPGQSPKLLIYKVSNRLSGVPDRFSGSGSGTDFTLKISRVETEDLGVYYCFQGSHGPWTFGGGTKLEIK
As for B6, the binding entry in assay [2] is “binds”.

B7: murine monoclonal antibody AGX-A04 (antibody, V domains shown)
VH: EVQLQQSGPELVKPGASVKISCKTSGYTFTDYTMHWVRQSHGKSLEWIGSFNPNNGGLTNYNQKFKGKATLTVDKSSSTVYMDLRSLTSEDSAVYYCTRIRATGFDSWGQGTTLTVSS
VL: DIVMSQSPSSLAVSAGEKVTMSCKSSQSLLNSRTRKNYLAWYQQKPGQSPKLLIYWASTRESGVPDRFTGSGSGTDFTLTISNVQAEDLTVYYCKQSYNPPWTFGGGTKLEIK
As for B7, in assay [2], the binding result is reported as “binds”.

B8: murine monoclonal antibody AGX-A09 (antibody, V domains shown)
VH: EVQLQQSGPELVKPGASVKMSCKASGYTFSSYVMHWVKQKPGQGLEWIGYINPYSDVTNYNEKFKGKATLTSDRSSNTAYMELSSLTSEDSAVYYCARNYFDWGRGTLVTVSA
VL: DIQMTQSPASLSASVGETVTITCRASKNVYSYLAWFQQKQGKSPQLLVYNAKTLAEGVPSRFSGGGSGTQFSLKINSLQPADFGSYYCQHHYNIPFTFGSGTKLEIK
As to B8, in assay [2], the binding entry is reported as “binds”.
